Data as given in the supplement of paper PMC10849652.
The list shows a part of the results.

Sequences of proteins named here, by UniProt entry; tags and fusion partners are left off. A change or cut given only in a name is not applied to a line headed by its entry.
UniProt Q7Z7A3: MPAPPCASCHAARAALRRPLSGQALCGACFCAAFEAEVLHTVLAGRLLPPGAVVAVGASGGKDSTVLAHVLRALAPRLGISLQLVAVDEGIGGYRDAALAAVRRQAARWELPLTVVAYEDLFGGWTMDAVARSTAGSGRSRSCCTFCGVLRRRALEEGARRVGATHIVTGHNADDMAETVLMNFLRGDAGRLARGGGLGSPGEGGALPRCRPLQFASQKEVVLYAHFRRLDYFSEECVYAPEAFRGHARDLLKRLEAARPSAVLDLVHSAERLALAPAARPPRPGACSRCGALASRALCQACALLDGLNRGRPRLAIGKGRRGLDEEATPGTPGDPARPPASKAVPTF
UniProt Q9UJU6: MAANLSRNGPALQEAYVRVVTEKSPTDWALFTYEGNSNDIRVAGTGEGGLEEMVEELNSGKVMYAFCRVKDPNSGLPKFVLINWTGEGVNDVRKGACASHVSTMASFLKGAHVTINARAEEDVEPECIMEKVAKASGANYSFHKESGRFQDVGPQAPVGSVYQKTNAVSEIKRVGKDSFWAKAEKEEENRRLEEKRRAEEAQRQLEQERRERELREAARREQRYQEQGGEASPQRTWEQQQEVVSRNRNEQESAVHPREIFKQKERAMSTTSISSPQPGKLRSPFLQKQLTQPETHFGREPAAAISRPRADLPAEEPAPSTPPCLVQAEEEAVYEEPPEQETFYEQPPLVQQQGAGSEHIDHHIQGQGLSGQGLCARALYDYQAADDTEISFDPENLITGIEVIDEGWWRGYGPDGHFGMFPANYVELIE
UniProt P09668: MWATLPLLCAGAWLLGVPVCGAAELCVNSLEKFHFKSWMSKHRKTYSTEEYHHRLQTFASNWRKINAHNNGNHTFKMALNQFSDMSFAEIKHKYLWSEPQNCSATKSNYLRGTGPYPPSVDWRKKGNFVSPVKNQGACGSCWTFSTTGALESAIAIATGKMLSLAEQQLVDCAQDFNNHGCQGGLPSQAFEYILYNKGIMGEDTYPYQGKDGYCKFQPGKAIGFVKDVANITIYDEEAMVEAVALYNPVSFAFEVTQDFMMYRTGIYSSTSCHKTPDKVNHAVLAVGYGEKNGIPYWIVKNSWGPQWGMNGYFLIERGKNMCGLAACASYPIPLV
UniProt Q14118: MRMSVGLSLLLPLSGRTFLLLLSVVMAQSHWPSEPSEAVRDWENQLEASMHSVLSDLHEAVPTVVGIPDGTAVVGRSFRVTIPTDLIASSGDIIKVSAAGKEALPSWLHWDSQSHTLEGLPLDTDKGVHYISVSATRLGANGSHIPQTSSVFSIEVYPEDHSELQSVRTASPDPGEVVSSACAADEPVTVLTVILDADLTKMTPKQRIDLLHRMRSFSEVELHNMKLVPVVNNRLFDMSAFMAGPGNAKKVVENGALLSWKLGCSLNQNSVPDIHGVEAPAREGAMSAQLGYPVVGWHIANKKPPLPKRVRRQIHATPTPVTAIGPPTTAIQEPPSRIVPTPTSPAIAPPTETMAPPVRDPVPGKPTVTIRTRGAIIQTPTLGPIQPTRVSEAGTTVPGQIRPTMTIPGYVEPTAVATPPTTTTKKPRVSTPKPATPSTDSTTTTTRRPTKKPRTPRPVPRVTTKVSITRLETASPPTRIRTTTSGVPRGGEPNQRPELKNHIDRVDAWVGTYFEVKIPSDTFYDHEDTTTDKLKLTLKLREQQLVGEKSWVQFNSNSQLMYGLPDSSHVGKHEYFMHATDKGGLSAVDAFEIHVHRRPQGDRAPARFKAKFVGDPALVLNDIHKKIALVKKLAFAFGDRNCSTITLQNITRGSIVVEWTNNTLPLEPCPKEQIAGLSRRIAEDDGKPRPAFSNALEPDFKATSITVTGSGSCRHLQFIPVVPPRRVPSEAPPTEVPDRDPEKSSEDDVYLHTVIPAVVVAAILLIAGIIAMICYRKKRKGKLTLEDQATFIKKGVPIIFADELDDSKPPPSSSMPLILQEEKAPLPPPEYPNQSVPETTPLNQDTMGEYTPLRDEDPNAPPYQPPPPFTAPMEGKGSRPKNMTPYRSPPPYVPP
UniProt P13498: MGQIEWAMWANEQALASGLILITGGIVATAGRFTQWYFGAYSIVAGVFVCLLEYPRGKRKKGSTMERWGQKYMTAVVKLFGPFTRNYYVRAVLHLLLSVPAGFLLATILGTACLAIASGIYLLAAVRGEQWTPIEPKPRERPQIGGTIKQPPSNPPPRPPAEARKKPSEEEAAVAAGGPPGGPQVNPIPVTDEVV
UniProt Q96SQ9: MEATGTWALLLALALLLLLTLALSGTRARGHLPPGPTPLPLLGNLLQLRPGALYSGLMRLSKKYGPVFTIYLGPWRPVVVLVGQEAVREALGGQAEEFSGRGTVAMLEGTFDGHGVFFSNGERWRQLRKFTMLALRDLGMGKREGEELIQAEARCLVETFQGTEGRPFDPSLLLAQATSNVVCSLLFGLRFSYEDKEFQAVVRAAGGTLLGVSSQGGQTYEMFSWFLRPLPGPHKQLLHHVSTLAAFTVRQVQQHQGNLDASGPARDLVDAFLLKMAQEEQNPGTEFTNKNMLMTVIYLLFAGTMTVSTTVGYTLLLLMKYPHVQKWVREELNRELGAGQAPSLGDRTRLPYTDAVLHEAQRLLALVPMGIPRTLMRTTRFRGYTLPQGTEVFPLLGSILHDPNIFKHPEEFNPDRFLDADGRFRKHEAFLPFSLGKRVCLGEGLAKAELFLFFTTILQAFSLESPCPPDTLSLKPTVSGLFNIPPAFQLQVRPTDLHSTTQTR
UniProt Q14247: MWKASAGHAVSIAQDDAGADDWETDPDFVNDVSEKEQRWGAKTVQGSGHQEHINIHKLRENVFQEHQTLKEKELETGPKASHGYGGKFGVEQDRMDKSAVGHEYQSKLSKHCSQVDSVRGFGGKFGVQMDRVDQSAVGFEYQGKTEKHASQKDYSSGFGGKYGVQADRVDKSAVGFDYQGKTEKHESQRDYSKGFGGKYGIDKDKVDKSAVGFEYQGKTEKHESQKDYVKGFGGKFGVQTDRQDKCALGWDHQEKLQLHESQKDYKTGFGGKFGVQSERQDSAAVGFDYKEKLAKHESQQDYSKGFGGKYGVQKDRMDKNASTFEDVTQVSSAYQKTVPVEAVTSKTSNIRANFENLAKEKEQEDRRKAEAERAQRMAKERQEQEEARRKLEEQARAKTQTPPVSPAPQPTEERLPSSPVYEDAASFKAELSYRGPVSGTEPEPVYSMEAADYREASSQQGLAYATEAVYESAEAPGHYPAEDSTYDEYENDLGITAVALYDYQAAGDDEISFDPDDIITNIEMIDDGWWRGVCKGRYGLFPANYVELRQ
UniProt P26232: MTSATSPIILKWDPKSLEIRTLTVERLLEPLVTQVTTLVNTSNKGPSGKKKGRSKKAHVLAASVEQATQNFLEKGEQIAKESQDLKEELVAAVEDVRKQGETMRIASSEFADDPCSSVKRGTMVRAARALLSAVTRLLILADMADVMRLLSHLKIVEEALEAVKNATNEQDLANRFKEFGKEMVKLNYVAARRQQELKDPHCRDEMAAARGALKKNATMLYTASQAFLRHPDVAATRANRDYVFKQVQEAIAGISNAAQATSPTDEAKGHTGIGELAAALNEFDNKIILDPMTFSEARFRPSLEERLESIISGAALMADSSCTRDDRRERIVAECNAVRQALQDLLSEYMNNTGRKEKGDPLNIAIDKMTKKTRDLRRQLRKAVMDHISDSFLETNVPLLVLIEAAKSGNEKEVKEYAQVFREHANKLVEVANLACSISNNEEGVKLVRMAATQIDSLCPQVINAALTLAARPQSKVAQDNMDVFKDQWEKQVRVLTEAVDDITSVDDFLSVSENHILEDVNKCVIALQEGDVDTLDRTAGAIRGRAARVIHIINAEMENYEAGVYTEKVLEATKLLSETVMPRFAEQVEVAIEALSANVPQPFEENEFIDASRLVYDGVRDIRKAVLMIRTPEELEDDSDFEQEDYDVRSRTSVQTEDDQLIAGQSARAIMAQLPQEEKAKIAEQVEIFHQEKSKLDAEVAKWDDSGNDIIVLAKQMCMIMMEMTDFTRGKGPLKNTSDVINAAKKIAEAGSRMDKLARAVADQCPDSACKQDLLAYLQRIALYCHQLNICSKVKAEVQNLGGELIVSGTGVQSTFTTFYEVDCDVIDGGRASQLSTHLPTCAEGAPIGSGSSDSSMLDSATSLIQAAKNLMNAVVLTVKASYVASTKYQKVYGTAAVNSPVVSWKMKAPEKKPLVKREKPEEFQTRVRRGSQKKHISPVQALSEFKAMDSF
UniProt O95476: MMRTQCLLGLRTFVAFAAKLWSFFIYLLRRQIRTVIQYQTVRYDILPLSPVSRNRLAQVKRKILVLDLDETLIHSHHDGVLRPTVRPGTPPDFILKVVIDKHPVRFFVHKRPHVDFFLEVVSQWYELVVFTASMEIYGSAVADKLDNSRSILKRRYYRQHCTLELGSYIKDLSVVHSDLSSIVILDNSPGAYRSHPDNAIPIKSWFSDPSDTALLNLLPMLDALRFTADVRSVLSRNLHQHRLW
UniProt P61962: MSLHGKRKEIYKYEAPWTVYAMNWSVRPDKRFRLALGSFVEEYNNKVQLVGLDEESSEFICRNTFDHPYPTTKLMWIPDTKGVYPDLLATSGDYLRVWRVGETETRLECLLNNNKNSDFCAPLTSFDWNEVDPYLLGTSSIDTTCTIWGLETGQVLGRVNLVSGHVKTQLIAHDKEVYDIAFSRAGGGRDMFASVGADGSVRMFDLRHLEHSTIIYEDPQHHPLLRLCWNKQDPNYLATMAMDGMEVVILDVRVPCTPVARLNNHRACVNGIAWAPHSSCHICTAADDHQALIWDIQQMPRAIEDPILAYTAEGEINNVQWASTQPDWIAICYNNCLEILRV
UniProt Q7L576: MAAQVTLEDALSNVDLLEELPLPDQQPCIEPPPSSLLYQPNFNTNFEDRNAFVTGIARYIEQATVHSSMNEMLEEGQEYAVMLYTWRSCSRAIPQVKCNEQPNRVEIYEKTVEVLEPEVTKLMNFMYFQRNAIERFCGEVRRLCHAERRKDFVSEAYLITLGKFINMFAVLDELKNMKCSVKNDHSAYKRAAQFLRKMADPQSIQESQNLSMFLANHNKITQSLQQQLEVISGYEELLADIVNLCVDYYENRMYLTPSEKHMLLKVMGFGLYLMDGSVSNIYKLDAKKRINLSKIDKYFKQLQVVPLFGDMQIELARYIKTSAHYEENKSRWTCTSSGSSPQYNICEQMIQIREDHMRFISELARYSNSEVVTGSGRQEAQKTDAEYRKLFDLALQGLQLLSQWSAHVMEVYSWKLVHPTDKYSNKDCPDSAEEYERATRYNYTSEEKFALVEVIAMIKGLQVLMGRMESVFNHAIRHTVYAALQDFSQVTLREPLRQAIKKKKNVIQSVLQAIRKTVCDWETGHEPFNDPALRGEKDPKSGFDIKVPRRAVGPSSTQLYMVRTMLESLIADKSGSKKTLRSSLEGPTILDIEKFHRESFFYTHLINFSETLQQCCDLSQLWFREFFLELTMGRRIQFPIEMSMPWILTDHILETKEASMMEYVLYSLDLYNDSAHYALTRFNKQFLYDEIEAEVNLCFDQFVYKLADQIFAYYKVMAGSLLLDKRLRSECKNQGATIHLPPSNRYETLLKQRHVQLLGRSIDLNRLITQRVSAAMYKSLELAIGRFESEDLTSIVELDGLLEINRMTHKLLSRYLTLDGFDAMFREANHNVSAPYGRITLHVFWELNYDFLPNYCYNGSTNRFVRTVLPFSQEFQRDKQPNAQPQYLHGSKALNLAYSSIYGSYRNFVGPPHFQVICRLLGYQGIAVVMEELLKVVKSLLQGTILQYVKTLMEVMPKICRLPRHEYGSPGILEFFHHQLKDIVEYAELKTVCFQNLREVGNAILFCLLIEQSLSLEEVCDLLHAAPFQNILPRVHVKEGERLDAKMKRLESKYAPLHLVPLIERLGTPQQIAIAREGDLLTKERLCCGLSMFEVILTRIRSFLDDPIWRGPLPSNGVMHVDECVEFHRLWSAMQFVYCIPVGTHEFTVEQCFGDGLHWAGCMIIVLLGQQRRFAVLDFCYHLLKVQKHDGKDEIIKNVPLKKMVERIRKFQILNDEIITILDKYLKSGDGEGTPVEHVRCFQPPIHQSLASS
UniProt P53634: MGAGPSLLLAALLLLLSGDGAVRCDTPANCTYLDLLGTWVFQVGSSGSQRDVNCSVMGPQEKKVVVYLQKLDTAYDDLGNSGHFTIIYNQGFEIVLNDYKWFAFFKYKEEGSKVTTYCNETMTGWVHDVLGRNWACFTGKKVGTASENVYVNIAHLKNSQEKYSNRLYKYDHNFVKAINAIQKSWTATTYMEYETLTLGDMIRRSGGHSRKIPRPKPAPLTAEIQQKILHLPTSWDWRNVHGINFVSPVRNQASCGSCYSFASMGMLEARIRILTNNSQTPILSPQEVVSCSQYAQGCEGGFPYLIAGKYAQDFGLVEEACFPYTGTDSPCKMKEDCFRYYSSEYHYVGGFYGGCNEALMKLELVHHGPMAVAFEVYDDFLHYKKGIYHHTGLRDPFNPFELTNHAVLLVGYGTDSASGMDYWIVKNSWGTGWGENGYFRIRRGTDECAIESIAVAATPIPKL

Legend:
Test in all cases: log2 fold change, soluble protein after heating vs DMSO (PISA); higher = thermal stabilisation; K562 cells, 10 uM, 30 min; active = over 0.2 and 3.5 SD of the protein, either way, in both replicates (recomputed)
saracatinib = compound: CN1CCN(CCOc2cc(OC3CCOCC3)c3c(Nc4c(Cl)ccc5c4OCO5)ncnc3c2)CC1 [saracatinib]
Outline: (§1)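 Aliquots of K562 cells (2×10^6 cells/mL) treated with 10 μM compound for 30 min were heated for 3 min over 48°C-58°C. After pooling and extraction in PBS with 0.5% NP-40 at 4°C, soluble protein from a 21,000xg, 90 min spin was quantified by TMTpro 16plex LC-MS/MS with channel sums equalised. Thermal stability is expressed against control samples, from duplicates, as a log2 fold change.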

sotrastaurin = compound: CN1CCN(c2nc(C3=C(c4c[nH]c5ccccc45)C(=O)NC3=O)c3ccccc3n2)CC1 [sotrastaurin]
Outline: as §1

Tubastatin A = compound: CN1CCc2c(c3ccccc3n2Cc2ccc(C(=O)NO)cc2)C1 [Tubastatin A]
Outline: as §1

[1] = compound: CNC(=O)C1=CC=CC=C1NC2=NC(=NC=C2Cl)NC3=C(C=C(C=C3)N4CCOCC4)OC
Outline: as §1

defactinib = compound: CNC(=O)c1ccc(Nc2ncc(C(F)(F)F)c(NCc3nccnc3N(C)S(C)(=O)=O)n2)cc1 [defactinib]
Outline: as §1

rucaparib = compound: CNCc1ccc(-c2[nH]c3cc(F)cc4c3c2CCNC4=O)cc1 [rucaparib]
Outline: as §1

[2] = compound: CNc1nc(-c2ccc3c(N)n[nH]c3c2)cc(N2C[C@@H](C(=O)NC3CCCCC3)CC[C@H]2C)n1
Outline: as §1

encorafenib = compound: COC(=O)N[C@@H](C)CNc1nccc(-c2cn(C(C)C)nc2-c2cc(Cl)cc(NS(C)(=O)=O)c2F)n1 [encorafenib]
Outline: as §1

[3] = compound: COC(=O)[C@H](CCSC)NC(=O)C1=C(C=C(C=C1)NC[C@H](CS)N)C2=CC=CC=C2
Outline: as §1

[4] = compound: COC1=CC=C(C=C1)CN2C=CC3=C2C=C(C=C3)C(=O)NO
Outline: as §1

filanesib = compound: CON(C)C(=O)N1N=C(c2cc(F)ccc2F)S[C@@]1(CCCN)c1ccccc1 [filanesib]
Outline: as §1

zotarolimus = compound: CO[C@H]1C[C@@H]2CC[C@@H](C)[C@@](O)(O2)C(=O)C(=O)N2CCCC[C@H]2C(=O)O[C@H]([C@H](C)C[C@@H]2CC[C@H](n3cnnn3)[C@H](OC)C2)CC(=O)[C@H](C)/C=C(\C)[C@@H](O)[C@@H](OC)C(=O)[C@H](C)C[C@H](C)/C=C/C=C/C=C/1C [zotarolimus]
Outline: as §1

idasanutlin = compound: COc1cc(C(=O)O)ccc1NC(=O)[C@@H]1N[C@@H](CC(C)(C)C)[C@](C#N)(c2ccc(Cl)cc2F)[C@H]1c1cccc(Cl)c1F [idasanutlin]
Outline: as §1

alisertib = compound: COc1cc(Nc2ncc3c(n2)-c2ccc(Cl)cc2C(c2c(F)cccc2OC)=NC3)ccc1C(=O)O [alisertib]
Outline: as §1

[5] = compound: COc1cc2nc(-c3cc(F)ccc3O)nc(N[C@@H]3CNC[C@H]3C(C)(C)O)c2cc1OC
Outline: as §1

gefitinib = compound: COc1cc2ncnc(Nc3ccc(F)c(Cl)c3)c2cc1OCCCN1CCOCC1 [gefitinib]
Outline: as §1

[6] = compound: COc1cccc2cc(-c3nc([C@H]4CC[C@H](C(=O)O)CC4)n4ncnc(N)c34)[nH]c12
Outline: as §1

lapatinib = compound: CS(=O)(=O)CCNCc1ccc(-c2ccc3ncnc(Nc4ccc(OCc5cccc(F)c5)c(Cl)c4)c3c2)o1 [lapatinib]
Outline: as §1

pictilisib = compound: CS(=O)(=O)N1CCN(Cc2cc3nc(-c4cccc5[nH]ncc45)nc(N4CCOCC4)c3s2)CC1 [pictilisib]
Outline: as §1

alvocidib = compound: CN1CC[C@H](c2c(O)cc(O)c3c(=O)cc(-c4ccccc4Cl)oc23)[C@H](O)C1 [alvocidib]
Outline: as §1

Measured: log2 fold change

CTU1 (UniProt Q7Z7A3)
inactive: saracatinib 0.01 | sotrastaurin -0.038 | Tubastatin A -0.029 | [1] -0.045 | defactinib -0.036 | rucaparib -0.003 | [2] 0.09 | encorafenib 0.02 | [3] -0.031 | [4] 0.045 | filanesib -0.193 | zotarolimus 0.022 | idasanutlin -0.037 | alisertib -0.063 | [5] -0.061 | gefitinib -0.024 | [6] 0.025 | lapatinib -0.085 | pictilisib -0.005

DCTPP1 (UniProt Q9H773)
inactive: saracatinib 0.012 | sotrastaurin 0.031 | Tubastatin A 0.031 | [1] -0.075 | defactinib -0.008 | rucaparib -0.011 | [2] -0.022 | encorafenib -0.072 | [3] 0.002 | [4] 0.023 | filanesib -0.02 | zotarolimus 0.083 | idasanutlin -0.061 | alisertib -0.067 | [5] -0.091 | gefitinib 0 | [6] 0.038 | lapatinib -0.058 | pictilisib -0.05

CUX1 isoform 3 (UniProt P39880)
inactive: saracatinib 0.002 | sotrastaurin -0.003 | Tubastatin A 0.021 | [1] 0.012 | defactinib -0.065 | rucaparib 0.037 | [2] -0.062 | encorafenib -0.018 | [3] 0.01 | [4] 0.068 | filanesib 0.001 | zotarolimus -0.002 | idasanutlin 0.012 | alisertib -0.047 | [5] -0.024 | gefitinib 0.009 | [6] 0.008 | lapatinib 0.013 | pictilisib 0.054

DBNL isoform 3 (UniProt Q9UJU6)
inactive: saracatinib 0.04 | sotrastaurin -0.014 | Tubastatin A 0.009 | [1] 0.01 | defactinib -0.106 | rucaparib -0.1 | [2] -0.05 | encorafenib 0.061 | [3] -0.004 | [4] 0.096 | filanesib 0.006 | zotarolimus -0.018 | idasanutlin 0.02 | alisertib 0.025 | [5] -0.002 | gefitinib 0.021 | [6] -0.016 | lapatinib 0.016 | pictilisib 0.027

CTSH (UniProt P09668)
inactive: saracatinib 0.101 | sotrastaurin 0.044 | Tubastatin A 0.017 | [1] -0.002 | defactinib 0.018 | rucaparib -0.121 | [2] -0.03 | encorafenib 0.018 | [3] 0.02 | [4] 0.066 | filanesib -0.072 | zotarolimus -0.046 | idasanutlin 0.029 | alisertib -0.06 | [5] 0.021 | gefitinib 0.025 | [6] 0.084 | lapatinib 0.018 | pictilisib 0.019

DAG1 (UniProt Q14118)
inactive: saracatinib -0.033 | sotrastaurin 0.1 | Tubastatin A -0.021 | [1] -0.093 | defactinib -0.032 | rucaparib -0.014 | [2] 0.052 | encorafenib 0.002 | [3] 0.007 | [4] 0.005 | filanesib 0.054 | zotarolimus -0.045 | idasanutlin -0.047 | alisertib -0.075 | [5] 0.105 | gefitinib 0.032 | [6] 0.082 | lapatinib -0.015 | pictilisib 0.115

CYBA (UniProt P13498)
inactive: saracatinib 0.067 | sotrastaurin 0.033 | Tubastatin A -0.02 | [1] 0.01 | defactinib 0.014 | rucaparib -0.035 | [2] -0.013 | encorafenib 0.031 | [3] 0.008 | [4] -0.06 | filanesib -0.189 | zotarolimus -0.067 | idasanutlin 0.017 | alisertib -0.044 | [5] -0.171 | gefitinib -0.007 | [6] 0.067 | lapatinib -0.034 | pictilisib -0.047

CYP2S1 isoform 2 (UniProt Q96SQ9)
inactive: saracatinib -0.001 | sotrastaurin 0.098 | alvocidib -0.005 | [1] 0.02 | [2] 0.301 | [4] 0.077 | filanesib 0.068 | zotarolimus 0.055 | idasanutlin 0.014 | alisertib 0.185 | [6] -0.069 | pictilisib 0.103

CTTN (UniProt Q14247)
inactive: saracatinib 0.009 | sotrastaurin 0.015 | alvocidib -0.002 | Tubastatin A -0.021 | [1] 0.011 | defactinib -0.001 | rucaparib -0.034 | [2] -0.09 | encorafenib -0.02 | [3] 0.023 | [4] -0.014 | filanesib -0.006 | zotarolimus 0.007 | idasanutlin -0.013 | alisertib -0.036 | [5] 0.076 | gefitinib -0.008 | [6] 0.064 | lapatinib -0.035 | pictilisib 0.026

DBN1 isoform 3 (UniProt Q16643)
inactive: saracatinib 0.121 | sotrastaurin 0.001 | Tubastatin A -0.094 | [1] -0.042 | defactinib -0.06 | rucaparib 0.041 | [2] -0.011 | encorafenib 0.097 | [3] -0.033 | [4] 0.012 | filanesib 0.182 | zotarolimus 0.074 | idasanutlin 0.061 | alisertib -0.023 | [5] -0.024 | gefitinib 0.05 | [6] 0.084 | lapatinib -0.041 | pictilisib -0.111

CTNNA2 (UniProt P26232)
inactive: saracatinib 0.007 | sotrastaurin 0.001 | alvocidib -0.052 | Tubastatin A 0.142 | [1] -0.039 | defactinib -0.032 | rucaparib -0.053 | [2] -0.072 | encorafenib -0.02 | [3] -0.015 | [4] 0.125 | filanesib -0.023 | zotarolimus -0.011 | idasanutlin -0.095 | alisertib -0.019 | [5] -0.005 | gefitinib 0.014 | [6] -0.024 | lapatinib 0.013 | pictilisib 0.023

CTDNEP1 (UniProt O95476)
inactive: saracatinib 0.08 | sotrastaurin -0.169 | alvocidib 0.048 | Tubastatin A 0.214 | [1] 0.092 | defactinib 0.077 | [2] 0.125 | [3] -0.083 | filanesib 0.038 | zotarolimus 0.284 | idasanutlin 0.045 | pictilisib 0.016

DCAF7 (UniProt P61962)
inactive: saracatinib -0.02 | sotrastaurin 0.034 | alvocidib 0.11 | Tubastatin A 0.059 | [1] -0.105 | defactinib -0.039 | rucaparib -0.002 | [2] 0.019 | encorafenib -0.009 | [3] 0.019 | [4] -0.042 | filanesib -0.023 | zotarolimus -0.028 | idasanutlin 0.102 | alisertib -0.056 | [5] 0.038 | gefitinib 0.025 | [6] 0.02 | lapatinib 0.002 | pictilisib 0.03

DAB2 (UniProt P98082)
inactive: saracatinib -0.044 | sotrastaurin 0.009 | Tubastatin A 0.139 | [1] 0.031 | defactinib -0.026 | rucaparib 0.043 | [2] 0.05 | encorafenib 0.077 | [3] -0.13 | [4] -0.009 | filanesib 0.079 | zotarolimus 0 | idasanutlin -0.055 | alisertib -0.081 | [5] 0.155 | gefitinib 0.024 | [6] 0.011 | lapatinib -0.005 | pictilisib 0.071

CYFIP1 (UniProt Q7L576)
inactive: saracatinib -0.023 | sotrastaurin -0.026 | Tubastatin A 0.006 | [1] -0.001 | defactinib -0.049 | rucaparib 0.025 | [2] 0 | encorafenib -0.005 | [3] -0.013 | [4] 0.053 | filanesib -0.027 | zotarolimus 0.039 | idasanutlin -0.028 | alisertib 0.061 | [5] -0.004 | gefitinib 0.008 | [6] 0.013 | lapatinib 0.023 | pictilisib 0.097

CTSC (UniProt P53634)
inactive: saracatinib 0.03 | sotrastaurin 0.046 | Tubastatin A -0.015 | [1] 0.052 | defactinib 0.035 | rucaparib 0.031 | [2] -0.005 | encorafenib -0.082 | [3] 0.007 | [4] 0.019 | filanesib -0.065 | zotarolimus 0.001 | idasanutlin -0.024 | alisertib 0.021 | [5] -0.04 | gefitinib 0.036 | [6] 0.026 | lapatinib -0.031 | pictilisib 0.083

CTSV (UniProt O60911)
inactive: saracatinib -0.049 | sotrastaurin 0.195 | Tubastatin A 0.016 | [1] 0.048 | defactinib 0.011 | rucaparib -0.056 | [2] 0.062 | encorafenib 0 | [3] 0.02 | [4] -0.006 | filanesib -0.112 | zotarolimus -0.011 | idasanutlin -0.036 | alisertib -0.042 | [5] -0.002 | gefitinib 0.056 | [6] 0.141 | lapatinib -0.064 | pictilisib 0.135

2 entries picked at random from those above, as already listed:
CYFIP1 (UniProt Q7L576)
inactive: saracatinib -0.023 | sotrastaurin -0.026 | Tubastatin A 0.006 | [1] -0.001 | defactinib -0.049 | rucaparib 0.025 | [2] 0 | encorafenib -0.005 | [3] -0.013 | [4] 0.053 | filanesib -0.027 | zotarolimus 0.039 | idasanutlin -0.028 | alisertib 0.061 | [5] -0.004 | gefitinib 0.008 | [6] 0.013 | lapatinib 0.023 | pictilisib 0.097

CTSC (UniProt P53634)
inactive: saracatinib 0.03 | sotrastaurin 0.046 | Tubastatin A -0.015 | [1] 0.052 | defactinib 0.035 | rucaparib 0.031 | [2] -0.005 | encorafenib -0.082 | [3] 0.007 | [4] 0.019 | filanesib -0.065 | zotarolimus 0.001 | idasanutlin -0.024 | alisertib 0.021 | [5] -0.04 | gefitinib 0.036 | [6] 0.026 | lapatinib -0.031 | pictilisib 0.083

The list goes on.

CWF19L2 (UniProt Q2TBE0)
inactive: saracatinib -0.089 | sotrastaurin -0.15 | Tubastatin A -0.079 | [1] -0.034 | rucaparib 0.102 | [2] -0.014 | encorafenib -0.002 | [4] 0.003 | filanesib 0.225 | zotarolimus -0.025 | idasanutlin 0.124 | [5] 0.062 | lapatinib -0.08 | pictilisib -0.309
